The chains are these.
T1: D. discoideum GFP-Sac1 (D. discoideum) (UniProt Q55AW9)
T1 sequence: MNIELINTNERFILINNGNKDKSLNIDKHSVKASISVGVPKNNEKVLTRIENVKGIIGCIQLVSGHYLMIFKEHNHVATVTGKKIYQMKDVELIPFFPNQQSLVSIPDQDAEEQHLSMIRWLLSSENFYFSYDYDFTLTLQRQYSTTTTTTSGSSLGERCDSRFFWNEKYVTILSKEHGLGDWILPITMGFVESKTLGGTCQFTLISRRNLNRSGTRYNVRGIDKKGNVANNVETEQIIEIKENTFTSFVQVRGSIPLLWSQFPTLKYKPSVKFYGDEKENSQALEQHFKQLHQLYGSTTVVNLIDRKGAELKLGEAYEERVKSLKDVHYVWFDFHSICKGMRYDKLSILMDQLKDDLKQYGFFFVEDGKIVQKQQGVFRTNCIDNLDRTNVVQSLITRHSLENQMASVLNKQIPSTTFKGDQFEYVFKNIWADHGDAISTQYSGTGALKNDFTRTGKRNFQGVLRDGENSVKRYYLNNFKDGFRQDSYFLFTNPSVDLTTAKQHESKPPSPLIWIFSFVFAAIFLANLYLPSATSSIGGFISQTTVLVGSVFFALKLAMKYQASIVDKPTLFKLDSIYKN

Chains of the proteins cited; added tags and fusions are not shown.
UniProt P53224: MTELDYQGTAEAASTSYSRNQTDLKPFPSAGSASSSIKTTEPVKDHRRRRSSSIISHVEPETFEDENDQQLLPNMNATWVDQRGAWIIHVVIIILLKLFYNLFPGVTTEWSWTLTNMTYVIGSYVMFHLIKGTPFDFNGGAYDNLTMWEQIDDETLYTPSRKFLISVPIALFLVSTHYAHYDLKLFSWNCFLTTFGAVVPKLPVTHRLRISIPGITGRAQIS

T2: ALFA-Sac1 (S. cerevisiae) (UniProt P32368)
T2 sequence: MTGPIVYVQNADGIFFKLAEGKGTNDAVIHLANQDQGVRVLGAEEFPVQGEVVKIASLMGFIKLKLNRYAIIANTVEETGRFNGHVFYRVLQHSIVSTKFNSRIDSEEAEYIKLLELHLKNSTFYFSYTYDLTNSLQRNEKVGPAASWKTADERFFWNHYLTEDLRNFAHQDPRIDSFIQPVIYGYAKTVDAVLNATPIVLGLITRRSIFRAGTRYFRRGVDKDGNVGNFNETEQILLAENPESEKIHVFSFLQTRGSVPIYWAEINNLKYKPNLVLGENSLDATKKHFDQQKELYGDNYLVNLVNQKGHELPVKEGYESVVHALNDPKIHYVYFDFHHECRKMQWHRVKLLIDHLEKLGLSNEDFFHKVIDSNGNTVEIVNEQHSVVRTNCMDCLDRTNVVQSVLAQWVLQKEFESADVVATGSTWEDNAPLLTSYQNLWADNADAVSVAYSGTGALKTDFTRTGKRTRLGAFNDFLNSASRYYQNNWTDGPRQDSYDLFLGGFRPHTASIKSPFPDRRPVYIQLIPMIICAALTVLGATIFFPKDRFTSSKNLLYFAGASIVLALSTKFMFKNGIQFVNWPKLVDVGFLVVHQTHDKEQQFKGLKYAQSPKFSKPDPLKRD

B1: sptA (enzyme, UniProt Q55FL5 1-479)
chain: MFLFDIYNNILYYTKEFIVTSTSPNLFIHGLMAVFIIYLLTKRPFKPRQNDTLTKAEEDELIREWSPIPLTPKSNPLEVLNQTELIIQESEGTHVTINNKKYLNLARSNYLGLINNPEINKISENAIRKYGVGSCGPRGFYGTIDVHLDLEKKTASFMKTPEAVLYSSAYATISSAIPSFSKIGDIIIVDRGVSQPVQVGVSLSRSRIYYFNHNDMDDLQRVLEQTQFKGSKAKIVRKFVVIEGLYYNSGTIAPLPQILKFKEQYKFRLIMDESHSVGVLGSTGRGLTEHYNIDTNLVDILTGSYGNSFSSGGGFCCGSPEVVYHQRLNGVGYVFSASLPPFLACSSTKAIEMLEENPKMLEMLHSNIGELYQGLNKSGALNGLLEITSLPISPVIHLSLLDSKSNKSNRINDELLLQKIVDKAMDYGLLLTRAKYVSAEKFIPKPSIRISVSSNLSSDQIKQSIEIIKKCTSFVLESN
B2: sptB (enzyme, UniProt Q54EX5 1-490)
chain: MEDKEDVENVDDVGYLPILFLYIAYAFIIFNGKLAEFIGKLKGERYLHTPEGYAPLFVEFEYFYQRRMYGRIKDAWDRPINSIAGAWIDVMPRASKHYSQRLELTGGKTIKCLNLGSYNYLGFAQNEGPVADKVIDSIYKYGVYTGSTSAEVGLSEPQRDLENLTARFVGKEDAIVFEMGFATNSGTLPALIGKGGLIISDSLNHASLATGCKNTGCKVKVFRHNDSKHLEEVIRESIIQGQPRTHRPWTMILIIIEGIYSMEGEVANLPEILAIKKKYKCYLYIDEAHSIGALGKTGRGIVDYYGIDPKEIDILMGTYTKSFGAIGGYVASDKSLIDHLRQSSFSQVYANSMSPVCAVQALEALRVIMGEDGTDTGAKKLKQLHDNSNYFREKIREMGFVILGNKDSPVIPLMLFNPAKLSAFSRLCLEKHIAVVVVGYPATPLTEPRTRFCISASHTIEDLDWALRQIDEIGDLITLKFHKGKYLKSK
B3: Lcb1 (enzyme, UniProt P25045 1-558)
chain: MAHIPEVLPKSIPIPAFIVTTSSYLWYYFNLVLTQIPGGQFIVSYIKKSHHDDPYRTTVEIGLILYGIIYYLSKPQQKKSLQAQKPNLSPQEIDALIEDWEPEPLVDPSATDEQSWRVAKTPVTMEMPIQNHITITRNNLQEKYTNVFNLASNNFLQLSATEPVKEVVKTTIKNYGVGACGPAGFYGNQDVHYTLEYDLAQFFGTQGSVLYGQDFCAAPSVLPAFTKRGDVIVADDQVSLPVQNALQLSRSTVYYFNHNDMNSLECLLNELTEQEKLEKLPAIPRKFIVTEGIFHNSGDLAPLPELTKLKNKYKFRLFVDETFSIGVLGATGRGLSEHFNMDRATAIDITVGSMATALGSTGGFVLGDSVMCLHQRIGSNAYCFSACLPAYTVTSVSKVLKLMDSNNDAVQTLQKLSKSLHDSFASDDSLRSYVIVTSSPVSAVLHLQLTPAYRSRKFGYTCEQLFETMSALQKKSQTNKFIEPYEEEEKFLQSIVDHALINYNVLITRNTIVLKQETLPIVPSLKICCNAAMSPEELKNACESVKQSILACCQESNK
B4: Orm2 (protein, UniProt Q06144 1-216)
chain: MIDRTKNESPAFEESPLTPNVSNLKPFPSQSNKISTPVTDHRRRRSSSVISHVEQETFEDENDQQMLPNMNATWVDQRGAWLIHIVVIVLLRLFYSLFGSTPKWTWTLTNMTYIIGFYIMFHLVKGTPFDFNGGAYDNLTMWEQINDETLYTPTRKFLLIVPIVLFLISNQYYRNDMTLFLSNLAVTVLIGVVPKLGITHRLRISIPGITGRAQIS
B5: Lcb2 (enzyme, UniProt P40970 1-561)
chain: MSTPANYTRVPLCEPEELPDDIQKENEYGTLDSPGHLYQVKSRHGKPLPEPVVDTPPYYISLLTYLNYLILIILGHVHDFLGMTFQKNKHLDLLEHDGLAPWFSNFESFYVRRIKMRIDDCFSRPTTGVPGRFIRCIDRISHNINEYFTYSGAVYPCMNLSSYNYLGFAQSKGQCTDAALESVDKYSIQSGGPRAQIGTTDLHIKAEKLVARFIGKEDALVFSMGYGTNANLFNAFLDKKCLVISDELNHTSIRTGVRLSGAAVRTFKHGDMVGLEKLIREQIVLGQPKTNRPWKKILICAEGLFSMEGTLCNLPKLVELKKKYKCYLFIDEAHSIGAMGPTGRGVCEIFGVDPKDVDILMGTFTKSFGAAGGYIAADQWIIDRLRLDLTTVSYSESMPAPVLAQTISSLQTISGEICPGQGTERLQRIAFNSRYLRLALQRLGFIVYGVADSPVIPLLLYCPSKMPAFSRMMLQRRIAVVVVAYPATPLIESRVRFCMSASLTKEDIDYLLRHVSEVGDKLNLKSNSGKSSYDGKRQRWDIEEVIRRTPEDCKDDKYFVN
B6: Tsc3 (protein, UniProt Q3E790 1-80)
chain: MTQHKSSMVYIPTTKEAKRRNGKSEGILNTIEEVVEKLYWTYYIHLPFYLMASFDSFFLHVFFLTIFSLSFFGILKYCFL

No constants are given. Whether binding was seen depends on the method and setting. Binding seen in cells or lysates may run through a third protein. Here binding means that the protein was enriched with, or labelled near, the bait; the list need not be complete. For some assays here: No binding means not detected with the bait. For some assays here: Sequences can lack the tags named with a protein.

In the first assay the target is T1, D. discoideum GFP-Sac1 (D. discoideum). Description: affinity purification with mass spectrometry; GFP-Trap beads, D. discoideum lysate in 20 mM HEPES pH 7.4, 150 mM KOAc, 5% glycerol, 1% GDN, 4 °C; label free proteomics against control cells.
Orm1-like protein 2: the binding entry was “binds”. Same read-out and setting: the same measure for B1: “binds”. Still for that read-out and setting: the same measure for B2: “binds”.

For the next assay, the target named is T2, ALFA-Sac1 (S. cerevisiae). Nature of the assay: affinity purification with mass spectrometry; ALFA beads, S. cerevisiae lysate in 20 mM HEPES pH 7.4, 150 mM KOAc, 5% glycerol, 1% GDN, 4 °C; label free proteomics against untagged control cells.
With Orm1 (from UniProt P53224 1-222), the binding result is “binds”. Still for that read-out and setting: the same measure for B3: “binds”; for B4: “binds”; for B5: “binds”.

The target of a further assay is ALFA-sac1Δ574 (S. cerevisiae). Described as above.
Turning to B3, the binding result is listed as “no binding”. The same measure, in the same setting: the same measure for B6: “no binding”; for B4: “no binding”; for B5: “no binding”.

Source of the values: publication PMC10550967, “Structure of the ceramide-bound SPOTS complex” (Nature Communications, 2023).
